This is an account of results in paper PMC11773488.

By UniProt entry, the sequences of proteins in these tests, tags left out.
UniProt P21462: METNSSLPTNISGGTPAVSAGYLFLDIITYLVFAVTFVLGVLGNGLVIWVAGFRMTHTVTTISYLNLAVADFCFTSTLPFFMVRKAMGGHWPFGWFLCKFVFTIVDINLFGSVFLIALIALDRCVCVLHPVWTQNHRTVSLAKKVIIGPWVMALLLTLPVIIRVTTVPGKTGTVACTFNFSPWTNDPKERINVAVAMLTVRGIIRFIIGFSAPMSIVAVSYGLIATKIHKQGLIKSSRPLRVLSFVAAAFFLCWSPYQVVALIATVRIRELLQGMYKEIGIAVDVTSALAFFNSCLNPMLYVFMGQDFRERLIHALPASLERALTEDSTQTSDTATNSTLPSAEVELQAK
UniProt P49407: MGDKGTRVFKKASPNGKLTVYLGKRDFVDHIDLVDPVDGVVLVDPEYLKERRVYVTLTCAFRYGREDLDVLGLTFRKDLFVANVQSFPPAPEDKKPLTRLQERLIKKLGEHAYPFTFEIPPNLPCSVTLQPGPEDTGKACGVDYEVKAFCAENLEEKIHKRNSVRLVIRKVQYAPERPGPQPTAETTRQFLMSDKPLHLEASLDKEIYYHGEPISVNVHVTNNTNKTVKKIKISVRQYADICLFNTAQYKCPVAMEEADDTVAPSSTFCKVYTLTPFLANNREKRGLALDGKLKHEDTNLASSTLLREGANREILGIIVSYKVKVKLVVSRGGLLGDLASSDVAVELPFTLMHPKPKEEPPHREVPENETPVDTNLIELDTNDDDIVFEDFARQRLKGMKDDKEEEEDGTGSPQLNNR
UniProt P32121: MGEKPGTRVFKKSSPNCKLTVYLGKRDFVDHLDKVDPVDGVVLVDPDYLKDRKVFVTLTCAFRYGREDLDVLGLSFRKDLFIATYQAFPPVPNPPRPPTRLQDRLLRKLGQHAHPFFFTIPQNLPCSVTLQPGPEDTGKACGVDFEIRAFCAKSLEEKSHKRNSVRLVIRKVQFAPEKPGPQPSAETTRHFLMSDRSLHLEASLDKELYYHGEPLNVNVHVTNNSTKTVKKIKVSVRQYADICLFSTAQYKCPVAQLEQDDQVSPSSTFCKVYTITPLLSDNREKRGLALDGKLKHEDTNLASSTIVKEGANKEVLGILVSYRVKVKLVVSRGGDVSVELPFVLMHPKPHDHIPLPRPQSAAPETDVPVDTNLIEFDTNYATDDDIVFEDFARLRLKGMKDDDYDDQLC

No constants are given. Whether binding was seen depends on the method and setting. In cells and extracts the contact can be indirect. Some results given as binding are weak or reduced against the parent protein; the word gives no strength.

The assay deals with N-terminal FLAG-tagged human formyl-peptide receptor 1 fused C-terminally to RLuc8 (FPR1-RLuc8) (human) (UniProt P21462). The experiment in a line: FRET or BRET; BRET of FPR1-RLuc8 with Venus-β-arrestin in control and GRK-edited HEK293 cells, with and without re-expressed GRKs (Suppl. Fig. S3, A-E); WKYMVm. In general terms: BRET reads energy transfer from a luciferase to a nearby fluorophore.

As to “β-arrestin 1 fused to Venus fluorescent protein (from UniProt P49407 1-418)”, the binding entry is reported as “binds”.

On to “β-arrestin 2 fused to Venus fluorescent protein (from UniProt P32121 1-409)”, for which the binding result is reported as “binds”.
